Laboratory results published in PubChem BioAssay AID1508600 (Functional Genomics Laboratory (NCATS/FGL), 2020).
Hit rate of the full screen: of about 53,000 sequences, about 3,700 (7%) were called active.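 How the source made its calls: active means gene knockdowns whose robust z-score for IL-1 alpha signal is at least 2 or at most -2, so actives lie on both sides; inactive means the rest.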 The list shows a part of the results.

Assay: Components of the Cytosolic LPS Sensing Pathway: Gene Identification via Genome-wide siRNA Screen;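 further: robust z of the log signal after scaling to non-targeting control siRNA wells of the plate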
Details: RAW264.7 macrophages, IL-1a HTRF, actives lie on both sides, screened at 100 nM (by protocol), cells primed 5 h with Pam3CSK4 first
Method in brief: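 Read-out: IL-1a HTRF on supernatant, divided by plate negative-control median ×100, log-transformed and converted to robust z-score. Cells were RAW264.7 given 100 nM siRNA, Pam3CSK4-primed 5 hours, then LipidA-transfected 24 hour.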

Sequence	z-score
CCUAAACAGGUUGAUAGGCTT against Tuba1a	inactive: 0.941
GGGAGUUACUAACCACUUCTT against Gja3	active: -2.05
GGCAGAUUUAGACACCAUATT against Synpr	inactive: -1.86
GCAUGGAUAUCCUAUUGACTT against Fmo5	inactive: -0.574
CCUGAGUAUGCCUAUUAUUTT against Snapc1	inactive: -0.153
GGAAAUCGUAUACAGGGACTT against Prkx	inactive: -0.724
GGGUCACCCAUUAUUUUAUTT against Phyhip	inactive: -0.899
GGAUACAGAACACAGGAGCTT against A430090L17Rik	inactive: 0.804
GGUCAAAGCAUCAAGGUGGTT against Oprl1	inactive: -0.268
GGAAAUCUAAAAGUCCUCCTT against Il17re	inactive: 0.2
GGAACAUUACCAUCAAGCUTT against Eif2s3x	inactive: -1.47
GGUUCUGAGUAUUUAAAGCTT against Nt5dc3	active: 2.21
GGUUCAGCCAGAAUUUUCGTT against Lefty2	inactive: 0.876
CGCCAAACAGGCUAGAUCUTT against Ephb2	inactive: -0.101
CCAGAAUGCCACUGAGAAATT against Fam149b	inactive: -1.22
GCCAUGUUCCUUUAUAACATT against Prps1	inactive: -0.997
GCACUGUACAGCCGUUUAUTT against Tktl2	inactive: 0.708
CGAGACAAGGUAGAAAGUATT against Spire1	inactive: 1.32
GCUUUGGACAAUAAGAAGUTT against Cdkl1	inactive: -0.838
GCCAAGAGUCAACAUCACATT against Eng	inactive: -0.529
ACAGCUCUUCCAACCACCUTT against Rtn4rl2	inactive: -0.759
GGAGAGACACUUUUUGAAATT against Ccdc158	inactive: -0.582

Sequence	z-score
GGUAAAAGUGGUUCUGUUCTT against Olfr1143	inactive: -1.15
GGAUACGAUGGAAAUAAUGTT against Nek6	inactive: -0.431
GGAAUUAGUCUAGAAAACGTT against Odf2l	inactive: -0.124
GGCCUUUACACGUGAGUCUTT against Zfp420	inactive: -0.864
GGCUUCCUGAUUCAAGAUGTT against Gzmd	inactive: -1.07
GGAGAAUGCCAAGCAUCGATT against Ip6k2	inactive: -0.381
CCUGCUACCUGCUGUAUUATT against Gm4983	inactive: 0.0802
GGAUCUAAAGCUUGAACCUTT against Pheta1	inactive: 1.24
GCAACGUGGUCAUCAAUCUTT against Ndufa9	inactive: -0.743
GGAUUUUCUUGACAAGCCATT against Rnf146	inactive: -0.217
GAUAUAGCCACAGUGUUUUTT against Vmn1r215	inactive: -0.873
CAAGGAAUACACUCAGAACTT against A730008H23Rik	inactive: -0.0935
GGGUGGUUGGAAAUGAUACTT against Kdr	inactive: 0.192
GGUGACUUCAUUUAGUUUGTT against Zfp352	inactive: 1.89
CGGUAACUUUGUCGUUUAGTT against 4930544G11Rik	inactive: 0.129
CCACUACUCGCCUUGGAAUTT against Slc25a11	inactive: -0.595
GGACAAUGUUUUGAUGAGUTT against Fam3c	inactive: -0.313
GGGCCAUGCUAACCCUUAATT against Vstm5	inactive: -1.67
GGUUUGGUAAGUCAUCUUATT against Dapp1	inactive: -0.345
GCCCUAGUGAGAGGAAACCTT against Tmem269	inactive: 0.101
GGAAGAAUUGGCAAGUGCUTT against Tctex1d2	inactive: 1.36
GGCCAUUAUGGACAUGAAUTT against Zcchc7	inactive: -1.1

Sequence	z-score
GGACCUGGAGUAUAUGCUGTT against Mgat4f	inactive: -0.611
GGACAGAGUUUUCAUUUUGTT against Rptn	inactive: -1.51
AAAAUCGUCAGAUCAAUCATT against Olfr698	inactive: -0.104
GGCCAUCCCACAGAUUUACTT against Slain2	inactive: -1.64
GGAGCUCUCAUCCUACUAUTT against Eif4ebp3	inactive: -0.0855
GGUUUUCCGAGGUUUCAAGTT against Azgp1	inactive: 0.812
CCUGGAUAGUCGAUCCACUTT against Mesp1	inactive: -0.545
CCUAUGAGGAUAUGUGGAUTT against Adm2	inactive: -1.66
GGGAUACCUCUGAGUGACUTT against Tmem139	inactive: 0.112
GGAGUUACCUUUCGAUAGGTT against Exoc5	inactive: 0.648
GGGCAUAUUCACGAUCAAUTT against Fut2	inactive: 1.43
GGUGUGGGUUUAACUAUCUTT against Olfr686	inactive: 1.28
GGGUAUAAAUGCCAGUAAATT against Sh3pxd2a	inactive: 0.18
GGGCCGUUUCCUGAAGAUCTT against Pura	inactive: -0.546
GGUUUAUUUGAUGUCCACATT against Rab2b	inactive: -0.927
CCCACCACUAUUUAUAUGATT against Dlg2	inactive: -0.17
GGGCUUGAAGGAAUUGACUTT against Cyp4f14	inactive: -0.0932
GGAUUUCAUCUGGUACCUGTT against Ceacam19	inactive: -0.0176
GGCUUUGGAAUGAGAGCUUTT against Dynlrb1	active: -2.07
GGGUUACCGGAAUGUUAUCTT against Tgm2	inactive: -0.0057
GGAAAUGAAUGGAAAUAGUTT against Ino80c	inactive: -0.192
GCCAGUAACGACAAAGACATT against Per3	inactive: -1.55

Sequence	z-score
GCCUGAAUAUUGCUAUCACTT against Gpr107	active: 2.35
GGGAAUGUUCAUACAAUAGTT against Tdp1	inactive: 0.664
GGAGAAACGAAACAAGAGUTT against Fkbp11	inactive: 1.07
GCAUUGAGGAACGACUCACTT against Ints10	inactive: -0.0988
GCCAGAAUCUGUUGUGAACTT against Gfpt1	inactive: 0.0747
GGUCUUUACAGUCCUCUACTT against Olfr71	inactive: -0.772
GGCCCAGAAAUGAUAUGGATT against Etd	inactive: 0.0627
CCGAGUUUGUGUCACCACUTT against Krtcap2	inactive: 0.17
UCAGAAUUCGAAAACUGGATT against Olfr1297	inactive: -0.315
GGAUAAUGGGAUGAGUCCUTT against Kcnq1	inactive: -1.36
GGACAGCAGUAAAUAUACUTT against Coq3	inactive: 0.423
GGAAUGCUUAAAGCUUUAATT against Clasp2	inactive: 0.353
GGUCUUUGUAUUUGAUGUUTT against Ctbs	inactive: -1.48
GGAGAGAAUGGACCAUCUCTT against Rnase10	inactive: -1.16
CCCAGGACCAUUGUUUGCATT against Olfr745	inactive: -0.719
GGUCAAAGAAGGAAAACACTT against Foxn1	inactive: -0.24
GGCCAUUUUCAACAAGAACTT against Cybc1	inactive: -0.862
GGUUUCCCUUUGUAUCAUGTT against Olfr1451	inactive: 0.357
GGGUGAAAGUUCAAGGUCUTT against Prss35	inactive: 1.01
GGGCAGAUGGAAGAGAUCATT against Onecut1	inactive: -1.4
GGAGCAUCAGACAUUAGACTT against Pdcd2	inactive: 1.35
GGACAAGAAGCAGGACAUCTT against Golga4	inactive: 0.128

Retrieved one by one from the list above (two):
Sequence	z-score
GGGCAGAUGGAAGAGAUCATT against Onecut1	inactive: -1.4
GGGUGAAAGUUCAAGGUCUTT against Prss35	inactive: 1.01

Following part:

Sequence	z-score
GCGAAGUGAAGACAUUGUATT against Calm2	inactive: 0.511
GGACUAGAAAUUAGUACCATT against Klf15	inactive: 0.928
GCCUUCGGAAAACGAGAAATT against Atpif1	inactive: -0.0239
GGAAAGCAGGACAAAAGGCTT against Mettl18	inactive: 0.346
CCUAAAAGUGCCUUACUAATT against Ftdc2	inactive: 0.679
GGUAUAAUCAAAGGAUAUCTT against Abraxas2	inactive: 0.524
CCAUGGUACUAAUGUAAAUTT against Eef1e1	inactive: 0.797
GGCUGAACUAAACUCCACCTT against Eapp	inactive: 0.057
GGGUUUGGACUGAUAUACUTT against Vrk2	inactive: -0.465
GGCAAUUCACUGUGAGUAATT against Mettl21a	active: -2.18
CCCAGUUCUGUCCUACUUATT against Efcab6	active: -2.79
GGCUUUAAGAUCGAUACUATT against Cdc73	inactive: -1.44
GGCCUGGAUUCCUUAACAATT against Lgi1	active: -3.23
GCCCAUCUUAGCAUUCUCUTT against Aldh4a1	inactive: -1.91
GGUUAUCCACAUCUUCUCUTT against Mutyh	inactive: 0.334
GCCUUUGAGUUUUAAGCCATT against Cobl	inactive: -1.91
GGAGAAAAUUGCCUAUCUGTT against Tuft1	inactive: 0.363
GCUCAUGACUUUUAGCGGCTT against Mif	inactive: 0.325

Looked up above:
In z-score, GGCCCAGAAAUGAUAUGGATT against Etd has inactive: 0.0627
In z-score, GGAGAAACGAAACAAGAGUTT against Fkbp11 has inactive: 1.07
In z-score, CCUGCUACCUGCUGUAUUATT against Gm4983 has inactive: 0.0802
In z-score, GCCUUUGAGUUUUAAGCCATT against Cobl has inactive: -1.91
